## Assay results

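Uptake of anthrax lethal toxin into cultured cells, read by FRET (460/530 nm ratio) and reported from the 460 nm channel; the cell line is not named here.
Each compound was tested as a concentration series from about 0.0005 to 40 µM.
The number is the fitted AC50 of the 460 nm signal alone; lower values mean a more potent effect. A falling signal goes with compounds filed as inhibitors or cytotoxic, a rising one with activators or fluorescent compounds (inferred from the filed classes).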

Values are in µM.
Common to all entries: measured here: 460 nm channel.
This is a side read-out of the assay, for part of the compounds, not drawn at random.
Potencies fitted to partial, single-point or poorly fitting curves are rough.
The first word of each remark tells which way the curve ran; it can be opposite to the aim of the assay.

| Compound | AC50 (µM) | curve |
|---|---|---|
| `CN1CCN(c2ncc3nc(-c4cccs4)c(=O)n(CCc4ccccc4)c3n2)CC1` | 6.31 | rising, partial curve |
| `ClCc1ccccc1` | 31.62 | falling, single point |
| `CN1C(=O)c2oc3ccccc3c(=O)c2C1c1ccccn1` (stereo unspecified) | 0.07943 | falling, full curve, poor fit |
| `COC(=O)CN1CN(c2ccccc2)C2(CCN(Cc3ccc4ccccc4c3)CC2)C1=O` | 31.62 | falling, single point |
| `Cc1ccc(Cn2c(SCC(=O)NCc3ccco3)nc3ccsc3c2=O)cc1` | 12.59 | rising, partial curve |
| `CS(=O)(=O)Nc1cccc(-c2nc(Nc3ccccc3)c3ccccc3n2)c1` | 25.12 | falling, partial curve |
| `COc1ccc(C2C3=C(CCCC3=O)Nc3nc(SCc4ccccc4)nn32)cc1OC` (stereo unspecified) | 6.31 | rising, partial curve, poor fit |
| `O=c1c(-c2nc3ccccc3o2)c2oc3ccccc3n2c2ccccc12` | 12.59 | falling, partial curve |
| `Cc1nc(NC(=O)C2CC3CCCC(C2)C3=O)sc1C` (stereo unspecified) | 5.012 | rising, single point |
| `Cn1c(Br)nc2c1c(=O)n(CC(O)COc1ccccc1)c(=O)n2C` (stereo unspecified) | 12.59 | rising, single point |
| `Cc1cccc(N2C(N)=C(C#N)C(C#N)(C#N)C2c2ccccc2)c1` (stereo unspecified) | 10 | rising, single point |
| `COc1ccccc1CNc1nc(-c2ccc3c(c2)OCO3)nc2ccccc12` | 31.62 | falling, partial curve |
| `CC(=NCc1cccnc1)c1c(O)n(C2CCCCC2)c(=O)[nH]c1=O` | 0.02512 | falling, full curve, poor fit |
| `COc1ccc(Nc2oc(COc3ccccc3F)nc2C#N)cc1` | 7.943 | falling, partial curve |
| `C[C@@H]1OC=C2[C@@H](O)[C@H]3O[C@H]3C(=O)[C@@]23[C@H]1[C@H]1C2=C([C@@H](O)[C@H]4O[C@@H]4C2=O)[C@@H]3O[C@@H]1C` | 5.012 | rising, single point |
| `CCC(C)OC(=O)c1[nH]c2c(c1C)C(=O)CC(c1ccc(N(C)C)cc1)C2` (stereo unspecified) | 15.85 | falling, partial curve |
| `OC1(c2cccc(C(F)(F)F)c2)CCN(c2ncnc3c2[nH]c2ccc(F)cc23)CC1` | 31.62 | falling, partial curve |
| `O=C(c1ccc2c(c1)c(=O)oc1ccccc12)N1CCCCC1` | 0.007943 | falling, full curve |
| `CN1CCC(=C2c3ccccc3CC(=O)c3sccc32)CC1` | 0.05012 | rising, full curve |
| `CN(C)CCSc1nc(N)c2c3c(sc2n1)CN(C)CC3` | 0.631 | falling, full curve, poor fit |
| `N#CCCn1c(=O)c(-c2cccs2)nc2cnc(Oc3ccccc3)nc21` | 7.943 | rising, partial curve |
| `O=C(c1ccco1)n1c(=S)nc2ccccn21` | 3.162 | falling, partial curve, poor fit |
| `Cc1ccccc1OCCCN1C(=O)C(=O)c2cccc(C)c21` | 7.943 | falling, partial curve |
| `O=C(c1ccco1)N1CCN(CC(=O)N2c3ccccc3CCc3ccccc32)CC1` | 1.259 | falling, full curve |
| `CCOc1cc(C(=O)Nc2ccc3c(c2)OCO3)ccc1OC(F)F` | 12.59 | falling, single point |
| `Cc1nc(Nc2ccccc2)c2nc(-c3ccccc3)n(CCCN3CCCCC3C)c2n1` (stereo unspecified) | 31.62 | falling, single point |
| `N#Cc1ccc(OCC(=O)N2CCN(S(=O)(=O)c3cccs3)CC2)cc1` | 0.007943 | falling, full curve, poor fit |
| `CCOC(=O)Cn1c(=O)oc2cc(S(=O)(=O)N3CCc4ccccc43)ccc21` | 31.62 | falling, single point |
| `CC(C)Nc1ncnc2c1cnn2-c1ccccc1` | 31.62 | falling, single point |
| `COc1ccccc1N1CCN(CCCCNS(=O)(=O)c2cccc3c(N(C)C)cccc23)CC1` | 15.85 | falling, partial curve |
| `O=C(Oc1ccc2ccc(OC(=O)N3CCOCC3)cc2c1)N1CCOCC1` | 0.3981 | falling, full curve, poor fit |
| `CCSc1nc(N2CCOCC2)c2ccccc2n1` | 0.5012 | falling, single point |
| `Cc1ccccc1N(C)S(=O)(=O)c1ccc2[nH]cc(C(=O)NCC3CCCO3)c(=O)c2c1` (stereo unspecified) | 12.59 | rising, single point |
| `NC(=O)c1c(NC(=O)CSc2nnc(Cc3ccccc3)n2Cc2ccco2)sc2c1CCC2` | 31.62 | falling, single point |
| `COc1cc(C2N(c3ccccc3)CCN2c2ccccc2)cc(OC)c1OC` | 31.62 | falling, single point |
| `Cc1ccnc(SCCn2c(Br)nc3c2c(=O)[nH]c(=O)n3C)n1` | 3.981 | rising, partial curve |
| `CCCCCCS(=O)[C@H]1CS(=O)(=O)C[C@@H]1S(=O)CCCCCC` (stereo partly specified) | 0.003162 | falling, full curve, poor fit |
| `CCOC(=O)c1ccc(-c2c(C(=O)OCC)oc3cc(O)c(CC)cc3c2=O)o1` | 1.995 | falling, partial curve |
| `Cc1cc(-n2c(C)cc(C(=O)CN3C(=O)NC4(CCCCC4)C3=O)c2C)no1` | 7.943 | rising, partial curve |
| `CCOC(=O)/C=C1\Nc2ccccc2SC1=O` | 31.62 | falling, single point |
| `COC(=O)[C@@]1(Cc2ccc(F)cc2)[C@H]2c3cc(C(=O)N(C)C)n(Cc4cccc5ccccc45)c3C[C@H]2CN1C(=O)c1ccccc1` | 6.31 | falling, partial curve |
| `COc1ccc(-c2nc3cnc(Nc4cccc(OC)c4)nc3n(C)c2=O)cc1` | 5.012 | rising, partial curve |
| `Clc1ccc([C@@H](c2ccccc2Cl)C(Cl)Cl)cc1` | 12.59 | falling, partial curve |
| `COCCn1c(=O)c(CCc2ccccc2)nc2cnc(Nc3ccccc3)nc21` | 10 | rising, partial curve |
| `CN(C)c1nc2c(c(=O)[nH]c(=O)n2C)n1Cc1ccc(F)cc1` | 12.59 | rising, single point |
| `COc1ccc2[nH]cc(CCNc3ncncc3-c3ccc4c(c3)OCO4)c2c1` | 25.12 | falling, single point |
| `CC1=NN(c2ccccc2)C(=O)C1` | 0.001585 | rising, full curve, poor fit |

Some entries from above, unchanged:

{"compound": "N#CCCn1c(=O)c(-c2cccs2)nc2cnc(Oc3ccccc3)nc21", "AC50 (µM)": "7.943", "curve": "rising, partial curve"}
{"compound": "ClCc1ccccc1", "AC50 (µM)": "31.62", "curve": "falling, single point"}
{"compound": "COC(=O)[C@@]1(Cc2ccc(F)cc2)[C@H]2c3cc(C(=O)N(C)C)n(Cc4cccc5ccccc45)c3C[C@H]2CN1C(=O)c1ccccc1", "AC50 (µM)": "6.31", "curve": "falling, partial curve"}
{"compound": "CS(=O)(=O)Nc1cccc(-c2nc(Nc3ccccc3)c3ccccc3n2)c1", "AC50 (µM)": "25.12", "curve": "falling, partial curve"}

The results are deposited in PubChem (AID912; NCATS, 2007).